Measured values from US12366579B2, “Sulfur-heterocycle exchange chemistry and uses thereof” (University of Virginia Patent Foundation, priority 2019, dated 2025).
Some entries share one result that the patent states for a list of compounds.

How the values were obtained:
[1] = tested on: HEK293T soluble proteomes; experiment: LC-MS chemical proteomics of probe-modified sites in cell proteomes; format: binding, human; conditions: for fraction of total modified residues assigned to lysines: 100 μM, 1 hr, 25° C.; for fraction of probe-modified residues/peptides assigned to tyrosines: high confidence sites
Method: Proteomes were diluted to 2.3 mg/mL in PBS and sample aliquots (432 μL) were treated with sulfonyl-triazole or -fluoride probes at the indicated concentrations (5 μL, 100× stock in DMSO), mixed gently and incubated for 1 h at room temperature. Probe-modified proteomes were subjected to CuAAC conjugation to desthiobiotin-PEG3-azide (10 μL of 10 mM stock in DMSO; final concentration of 200 μM) using TCEP (10 μL of fresh 50 mM stock in water; 1 mM final concentration), TBTA ligand (33 μL of a 1.7 mM 4:1 t-butanol/DMSO stock, 100 μM final concentration), and CuSO4 (10 μL of 50 mM stock, 1 mM final concentration). Samples were mixed by vortexing and then incubated for 1 h at room temperature. Excess reagents were removed by chloroform-methanol extraction as previously described^51. Protein pellets were re-suspended in 500 μL of 6M urea/25 mM ammonium bicarbonate followed by DTT reduction and IAA alkylation as previously described^5. Excess reagents were removed by chloroform/methanol extraction as described above, and the protein pellet was re-suspended in 500 μL of 25 mM ammonium bicarbonate and then digested to peptides using trypsin/Lys-C (7.5 μg in 15 μL of ammonium bicarbonate, sequencing grade from Promega, Madison, Wisconsin, United States of America) was added to the mixture and incubated for 3 hrs at 37° C. Probe-modified peptides were enriched by avidin affinity chromatography, eluted, and prepared for LC-MS analysis as previously described^51.
A top 10 data-dependent acquisition MS method was used.
Sulfonyl-probe modifications of tyrosine, lysine, and other amino acids were included as a variable (common) modification of +635.27374 Da. […] A Byonic score of 300 was applied for a more inclusive initial evaluation of the search results and thereby consider more possible probe-modified sites. MS1 and MS2 spectra corresponding to the highest-scoring tyrosine- and lysine (internal or non-C terminal)-modified sequences (˜50-100 peptides) were manually verified. […] Distinct peptides containing probe-modified amino acid residues (termed sites) were determined by identifying all unique razor protein and site combinations across all of the proteomes tested.
To compare amino acid residues modified by sulfonyl probes, protein and peptide identifications were accomplished as described above with variable (common) modification of +635.27374 Da on the following amino acid residues: cysteine, aspartic acid, glutamic acid, histidine, lysine, methionine, asparagine, glutamine, arginine, serine, threonine, tryptophan, and tyrosine. For these amino acid comparisons, carbamidomethylation (+57.021464 Da) of cysteines was searched as a variable/common modification to allow for the potential of probe modification on cysteines. Comparisons of probe-modified sites across all probes and cell lines tested were performed using the R package ggplot2 (online at tidyverse.org). Venn diagrams for comparisons were generated using the VennDiagram R package^52.
Proteomes were digested with trypsin protease and desthiobiotin-modified peptides enriched by avidin affinity chromatography, released, and analyzed by high-resolution liquid chromatography-mass spectrometry (LC-MS). Probe-modified peptide-spectrum matches (PSMs) that met a quality control confidence criteria of ≥300 Byonic score^31 and ≤5 ppm mass accuracy were selected for further manual evaluation.

[2] = HPLC assay, p-cresol reactivity against a sulfonyl probe mixture; format: physicochemical; conditions: TMG 2.2 equivalents, 0° C.
Method: (§1) The following reagents were prepared and kept at 0° C. prior to use: 0.1 M solution of caffeine in acetonitrile (ACN), 1.0 M solution of n-butylamine, p-cresol, tetramethylguanidine (TMG), acetic acid in ACN, and 10 mM solution of the probes in a mixture of DMF-ACN (v/v=10:90) are made.
(i) p-Cresol reactivity against a probe mixture: A solution of p-cresol (16.5 μmol, 3.3 eq) was premixed with 1.1, 2.2, or 3.3 eq of TMG. To initiate the reaction, the p-cresol/TMG solution was added to a sulfonyl probe mixture of HHS-475/HHS-482/HHS-SF-1 (500 μL, 5 μmol, 1.0 eq each) and the reaction was kept at 0° C. The reaction progress was monitored by taking out a 50.0 μL aliquot of the reaction mixture at various time points followed by addition of a 10 μL quenching solution of acetic acid (0.5 M final, 5.0 μmol) and the internal caffeine standard (0.05 M final, 0.5 μmol). Sample (1.0 μL) was injected and analyzed by reverse-phase HPLC on a Shimadzu 1100 Series spectrometer (Shimadzu, Kyoto, Japan) with UV detection at 254 nm. Reaction progress was evaluated by monitoring consumption of sulfonyl probes because all probes generate a shared p-cresol and n-butylamine product. Chromatographic separation was performed using a Phenomenex Kinetex C18 column (2.6 μm, 50 mm×4.6 mm, Phemonenex, Torrance, California, United States of America). […]

[3] = HPLC assay, n-butylamine reactivity against a sulfonyl probe mixture; format: physicochemical; conditions: TMG 3.3 equivalents
Method: as §1
(ii) n-Butylamine reactivity against a probe mixture: Reactivity of sulfonyl probes against n-butylamine (3.3 eq) was performed as described above except the amount of TMG was fixed at 3.3 eq.

Compound	fraction of total modified residues assigned to lysines [1]	fraction of probe-modified residues/peptides assigned to tyrosines [1]	time to consumption of probe by p-cresol [2]	time to complete reaction with n-butylamine [3]	overlap of modified tyrosine sites, HHS-SF-1 vs HHS-482 ([1]; FIG. 4C)
C#CCNC(=O)c1ccc(S(=O)(=O)n2nccn2)cc1 [HHS-465, 4-((2H-1,2,3-Triazol-2-yl)sulfonyl)-N-(prop-2-yn-1-yl)benzamide]	< 25%	> 60%			
C#CCNC(=O)c1ccc(S(=O)(=O)n2cncn2)cc1 [HHS-475, 4-((1H-1,2,4-Triazol-1-yl)sulfonyl)-N-(prop-2-yn-1-yl)benzamide]	< 25%	> 60%	≤ 10 min		
C#CCNC(=O)c1ccc(S(=O)(=O)n2cnc(-c3ccc(OC)cc3)n2)cc1 [HHS-482, 4-((3-(4-Methoxyphenyl)-1H-1,2,4-triazol-1-yl)sulfonyl)-N-(prop-2-yn-1-yl)benzamide]			≤ 10 min	> 24 h	> 90%
